According to PMC5984089, “FBXW7 regulates DISC1 stability via the ubiquitin-proteosome system” (Molecular Psychiatry, 2017):
Results are given in words; binding and its absence hold for the method and conditions named. Binding can be weak; no strength is given.

Chains of the proteins cited; added tags and fusions are not shown. Lines headed by an entry give the natural chain unless they say otherwise; changes in a name come on top.
UniProt Q9NRI5: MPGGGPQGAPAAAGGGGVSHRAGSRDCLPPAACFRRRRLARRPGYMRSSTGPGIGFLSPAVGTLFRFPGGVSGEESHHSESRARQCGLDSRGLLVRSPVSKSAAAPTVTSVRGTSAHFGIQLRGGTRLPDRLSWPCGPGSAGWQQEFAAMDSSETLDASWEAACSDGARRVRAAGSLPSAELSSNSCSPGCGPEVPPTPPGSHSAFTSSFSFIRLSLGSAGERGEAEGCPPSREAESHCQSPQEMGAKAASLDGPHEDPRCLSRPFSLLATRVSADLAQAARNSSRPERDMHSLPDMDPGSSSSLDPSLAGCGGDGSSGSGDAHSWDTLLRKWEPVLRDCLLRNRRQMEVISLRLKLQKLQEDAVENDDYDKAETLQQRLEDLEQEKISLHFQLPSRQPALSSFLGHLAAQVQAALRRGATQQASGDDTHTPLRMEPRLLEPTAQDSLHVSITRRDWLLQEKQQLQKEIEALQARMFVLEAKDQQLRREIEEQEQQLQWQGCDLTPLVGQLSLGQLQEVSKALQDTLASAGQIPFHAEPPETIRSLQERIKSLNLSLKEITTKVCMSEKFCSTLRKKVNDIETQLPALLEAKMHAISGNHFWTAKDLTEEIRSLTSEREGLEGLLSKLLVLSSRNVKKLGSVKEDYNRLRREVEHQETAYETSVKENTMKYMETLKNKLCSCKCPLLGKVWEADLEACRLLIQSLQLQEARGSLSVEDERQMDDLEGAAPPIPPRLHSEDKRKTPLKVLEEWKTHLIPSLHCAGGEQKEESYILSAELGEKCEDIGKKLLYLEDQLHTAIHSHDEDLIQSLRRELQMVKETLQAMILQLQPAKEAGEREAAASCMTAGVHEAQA

Biological target: Skp1-FBXW7 complex (human FBXW7 residues 263-707 with truncated Skp1, His6 tag cleaved)
Experiment: crystal structure; Skp1-FBXW7 mixed with a twofold molar excess of the DISC1 peptide; crystallised from 100 mM HEPES-Na (pH 7.4), 1.2 M Li2SO4, hanging drop, 4 °C; one complex in the asymmetric unit; both purified

binding: binds
Binder: PEVPPTPPGSHSAFT (peptide, UniProt Q9NRI5 193-207, phosphothreonine at 198, phosphoserine at 202) [DISC1 peptide (residues 193-207, phosphorylated at Thr198 and Ser202)]
